Data reported in publication PMC10163288.
The list shows a part of the results.

B1: il10ra_site1_sap_23_mot_HHH_b1_02492_000000051_0001_1_21_H_._HHH_b1_07288_af2_0001_0000200014_0000001_0_0001 (protein)
chain: SSSSDAAHRVYELLRRAIELLRDGNPEEAREVLEEAQELAEEGNNRVMRVQIRFLEKQIDSSSSS
B2: il10ra_site1_sap_19_mot_HHH_b1_06914_000000280_0001_1_18_H_._HHH_b1_04080_0001_0000200018_0000001_0_0001_af2pred_0001 (protein)
chain: SSSSSSDEEEEVRELLEEAKHVDDEEEAFKVVAEAARLALELQNQELLQLALKLAEELSSSSSSS
B3: il10ra_site1_sap_28_mot_HHH_b2_06480_af2_000000075_0001_1_18_H_._HHH_b1_07267_af2_0001_0000100003_0000001_0_0001_af2pred_dldesign_0_af2pred (protein)
chain: SSSSSPEREALQKALDYLEWMIEAGDREGAARALANLTDLARRLNDAEALARLAELRARLESSSS
B4: il10ra_site1_normal_mot_HHH_b2_00033_000000036_0001_41_54_H_._HHH_b1_00748_0001_0000600035_0000001_0 (protein)
chain: SSSSDVAELAAAAARLAIRLNNPELFQELWELAKRIVEEGDPRLREELEEIVRELEELISSSSSS
B5: il10ra_site1_normal_mot_HHH_b2_06142_af2_000000101_0001_1_18_H_._HHH_b1_03808_0002_0000700025_0000001_0 (protein)
chain: SSSSDEEVEELLKLLAQLAIRNPEFAEELQQVLVRVHNLLHRGNPEEARRLAEEAIERVEKSSSS
B6: il10ra_site1_sap_20_mot_8756ee2cf497b5429c717dfc0c0bcfd6_0001_000000186_0001_1_13_H_._HHH_b1_04711_0001_0000300015_0000001_0_0001_af2pred_dldesign_0_af2pred (protein)
chain: SSSSSSPERLQALLDRIEELLAAGRLGEAIKLLKEAVELAAELDDQEALQRARDLAGRLVSSSSS
B7: il10ra_site1_normal_mot_HHH_b1_05789_000000283_0001_1_15_H_._ems_3hM_213_0001_0000200005_0000001_0_af2pred_0001 (protein)
chain: PEIEELAEEAIELAEELKEKIQDPKLRHAVEAALRLLERALENRDERALEHAIRALELIAKLASS
B8: il10ra_site1_sap_36_mot_HHH_b1_05512_000000094_0001_1_18_H_._HHH_b1_00459_af2_0001_0000200011_0000001_0_0001 (protein)
chain: SSSSDEAREEVERLLEEAEEALEEGDEELVIRLLFEAVRLAMHGKDAELLRAVWELFESLSSSSS
B9: il10ra_site1_sap_21_mot_HHH_b2_04013_af2_000000040_0001_22_39_H_._HHH_b2_02292_af2_0001_0000200014_0000001_0_0001_af2pred_0001 (protein)
chain: SSSSDDEFFKRVAELLRRVNELARKGNPEEAERLLEEAKELAEEANDPYLKLSIEFVEERNSSSS
B10: il10ra_site1_sap_21_mot_HHH_b1_07100_000000193_0001_1_18_H_._HHH_b2_04755_0001_0000100001_0000003_0_0001 (protein)
chain: SSSSDEDEERVERLLEEAEELAEEGNPREAAKVLLEALQIAIQSNNPELLRRVWEVLQRLGSSSS
B11: il10ra_site1_normal_mot_HHH_b1_04940_000000219_0001_1_18_H_._HHH_b1_07862_0001_0000100003_0000001_0_af2pred_0001 (protein)
chain: SSSSSSAEEAARFFLKAAKQLEDPELVKRALRFAAWLAKSRNDEELLKEIEELLKEVEEGSSSSS
B12: il10ra_site1_sap_29_mot_HHH_b2_00345_af2_000000013_0001_42_56_H_._HHH_b1_06101_af2_0001_0000200013_0000001_1_0001 (protein)
chain: SSSSDEEEEIRELFEEAKELLEEGDEEEALRVLIELNRLAFRTGDPEAHRLVIELAELLKGSSSS
B13: il10ra_site1_normal_mot_2c1a291787c6f40772924d4e9068d803_0001_af2_000000222_0001_34_48_H_._HHH_b2_03388_0001_0000500030_0000001_0 (protein)
chain: SSSSDEYEERVFQLLIEAYRLAQRGNPEEAEKVLEEAEKILEENNDEANLRAVRRLLELLGSSSS
B14: il10ra_site1_normal_mot_HHH_b1_05860_000000142_0001_1_19_H_._HHH_b2_03504_0001_0000100005_0000001_0_af2pred_0001 (protein)
chain: SSSSDVEERVQELIEEAEELLEEGDLERVFELLEEILELAFKSNNPEIEKEARRLSRLLAGSSSS
B15: il10ra_site1_sap_16_mot_HHH_b2_02337_000000026_0001_38_52_H_._HHH_b2_04339_af2_0001_0000100005_0000001_0_0001 (protein)
chain: SSSSDEEEVEELLREARELAERGNHEEAFRLLFEALRIVVQLGNAELIQLIWEAIHFVANRSSSS
B16: il10ra_site1_sap_12_mot_HHH_b2_03328_af2_000000127_0001_1_19_H_._HHH_b1_02894_0001_0000200006_0000001_0_0001 (protein)
chain: SSSSSSSEVEELLREAEELLERGNPEEALRVIMEALRLALREGDEELFQELWELAKRVASSSSSS
B17: il10ra_site1_sap_21_mot_HHH_b1_06379_000000121_0001_1_16_H_._HHH_b1_00711_0001_0000100006_0000001_0_0001 (protein)
chain: SSSSDLEEAIRLVQAVVELDHEGNVEEARELVEEAEKVVEEAGNDVLRVQLEYLKRLLERHSSSS
B18: il10ra_site1_sap_11_mot_HHH_b1_06363_000000103_0001_21_38_H_._HHH_b2_01051_af2_0001_0000200005_0000001_0_0001 (protein)
chain: SSSSTEAQEVYELSREAAELDREGDPEEAEEVLQEALELARELGDWAARKVAEYMLRTINSSSSS
B19: il10ra_site1_sap_20_mot_HHH_b1_05088_af2_000000046_0001_20_36_H_._HHH_b1_05011_0001_0000100005_0000002_0_0001_af2pred_0001 (protein)
chain: SSSSDEEEVEKQVRELLEEAKRIPDPEERAYVLVRAFALANRLGDEELRKLVEEVAQELLSSSSS
B20: il10ra_site1_sap_23_mot_HHH_b1_03754_af2_000000016_0001_40_56_H_._HHH_b1_06703_0001_0000100002_0000001_0_0001 (protein)
chain: SSSSDEDQRALELVLEAMELALRGDPEEAEEVLKEALQVAEEGNNERLAEQIEILLEAQKSSSSS
B21: il10ra_site1_normal_mot_HHH_b2_06864_af2_000000190_0001_1_20_H_._HHH_b2_03449_0001_0000200027_0000002_0 (protein)
chain: SSSSSSDEEEVEELLEEAKQIEDPQEVFKLLRKAIEIAAEANDPELAELVMKVIRELFSSSSSSS
B22: il10ra_site1_normal_mot_a6c796b944619e241e020fd597ddb6da_0001_af2_000000092_0001_15_31_H_._HHH_b2_01778_af2_0001_0000200009_0000001_0 (protein)
chain: SSSSSSDDDEQRVRALIFFAKLSHNREAARISLEIAKEIAEEINNEELQKEIEELEKELSSSSSS
B23: il10ra_site1_normal_mot_HHH_b1_05757_000000171_0001_42_57_H_._HHH_b1_01891_af2_0001_0000100002_0000001_0_af2pred_dldesign_0_af2pred (protein)
chain: SSSSSPELEALAARIEELLAEGKYEEAFKLLKELAEKASEEKDLEAQARARRLARRLVESSSSSS
B24: il10ra_site1_sap_22_mot_HHH_b2_00099_af2_000000010_0001_1_19_H_._HHH_b1_00236_0001_0000500011_0000001_0_0001 (protein)
chain: SSSSDEEENEELLEQLERLIEEGDRERALELAQEAEEILVQNSDPEALHRLWRLVKEIAKLSSSS
B25: il10ra_site1_normal_mot_HHH_b1_02062_000000185_0001_1_20_H_._HHH_b1_03322_0001_0000300025_0000001_0 (protein)
chain: SSSSDIERRIYELSREAAELDSQGDPERAEEVLEEAKELAEEINNLNLLFQVRFLERVLHSSSSS
B26: il10ra_site1_normal_mot_HHH_b2_05797_000000294_0001_1_19_H_._HHH_b2_04237_0001_0000500046_0000002_0 (protein)
chain: SSSSDLEEYVRAARRFAEALLEAGDPEAARRILRLLLEVVERLGNEELARELEKLLEEVEGSSSS
B27: il10ra_site1_normal_mot_8756ee2cf497b5429c717dfc0c0bcfd6_0001_000000186_0001_1_13_H_._HHH_b1_07180_0001_0000100004_0000001_0_af2pred_0001 (protein)
chain: SSSSSEVEELYRLLRRIAELLHNGNEEEARKLIEEAEEVAQEAGNLVVEVILEFLLKNLDSSSSS
B28: il10ra_site1_normal_mot_HHH_b2_06795_000000133_0001_42_56_H_._HHH_b1_02165_0001_0000400030_0000001_0 (protein)
chain: SSSSDELEERVRQALRFVRALLEAGNPEAAELLLRQLEEVVKRHNNEELLELVRELLEEVRSSSS
B29: il10ra_site1_normal_mot_HHH_b2_00612_000000251_0001_1_14_H_._HHH_b1_06195_0001_0000100001_0000003_0 (protein)
chain: SSSSDLSEEVRRVLEEAAELQWEGNPEEAERLLEELEELIREKGNQLALWSVEYLLRQIEKSSSS
B30: il10ra_site1_normal_mot_HHH_b1_02997_000000220_0001_39_52_H_._HHH_b1_07718_af2_0001_0000200010_0000001_0_af2pred_0001 (protein)
chain: SSSSSHELRERVQELARRAAELHAEGDPEEARELLEEAEELAEEGNNLVLLVIVRYILELASSSS
B31: il10ra_site1_sap_17_mot_HHH_b2_05084_af2_000000250_0001_43_57_H_._HHH_b1_08533_0001_0000700070_0000001_0_0001_af2pred_0001 (protein)
chain: SSSSDAEHLLELAEIALELLLKAGDEEKVEEVLELVERLARALNDEEVLERVKELEEELHSSSSS
B32: il10ra_site1_sap_16_mot_HHH_b2_01447_af2_000000258_0001_1_20_H_._HHH_b1_00719_af2_0001_0000200004_0000002_0_0001_af2pred_0001 (protein)
chain: DEEEEVARIILELLKQGIPPEEAIIIVAQEIAELKNPELSHLISRIYALLNRNPEEARELLEELH
B33: il10ra_site1_normal_mot_HHH_b1_02062_000000185_0001_1_20_H_._HHH_b1_08089_0001_0000100003_0000001_0_af2pred_0001 (protein)
chain: SSSSDVEERVEELFEEVEELLRQGDVEEAFKVSREMIELASENQDDEAAELAREASRLFARSSSS
B34: il10ra_site1_normal_mot_HHH_b1_01821_000000158_0001_23_39_H_._HHH_b2_04755_0001_0000100013_0000001_0 (protein)
chain: SSSSDLEEEVERLLEEAEKLYEEGNPEEVLELLLEALQLALENSNKELLQLVWRVFKELRGSSSS
B35: il10ra_site1_sap_27_mot_104c758fc23488854646035ccb2100c6_0001_000000282_0001_15_29_H_._5a9d7fc92c57439179869c3e1d567c11_0001_0001_0000100005_0000001_0_0001_af2p … (protein)
chain: SSSSSPLEKKLEATTKYLKFCLSHNDLEGIKSGLIALKQLGDESGNEEAKKVAAEVEEKLKSSSS
B36: il10ra_site1_sap_24_mot_HHH_b2_00475_000000107_0001_44_57_H_._HHH_b1_04576_0001_0000500027_0000001_0_0001 (protein)
chain: DLLELAFELQRRQGTPPEDVIRALLYLAHAANDPERVELLEEVLKLLEDGDPERAEELLKEASKR
B37: il10ra_site1_normal_mot_HHH_b1_07679_000000198_0001_1_20_H_._HHH_b2_07151_0001_0000400029_0000002_0_af2pred_0001 (protein)
chain: SSSSSSDELFERVAELLREATQIEDEEERRQVLEEAKELAEEGNNEALKISIEFIEEAHSSSSSS

What follows are binders tested against il10ra, Q13651 (assay: yeast display titration).

Apparent Kd, inactive:
B1 no binding seen
B2 no binding seen
B3 no binding seen
B4 no binding seen
B5 no binding seen
B6 no binding seen
B7 no binding seen
B8 no binding seen
B9 no binding seen
B10 no binding seen
B11 no binding seen
B12 no binding seen
B13 no binding seen
B14 no binding seen
B15 no binding seen
B16 no binding seen
B17 no binding seen
B18 no binding seen
B19 no binding seen
B20 no binding seen
B21 no binding seen
B22 no binding seen
B23 no binding seen
B24 no binding seen
B25 no binding seen
B26 no binding seen
B27 no binding seen
B28 no binding seen
B29 no binding seen
B30 no binding seen
B31 no binding seen
B32 no binding seen
B33 no binding seen
B34 no binding seen
B35 no binding seen
B36 no binding seen
B37 no binding seen

A portion taken from the entries so far, for reference:
Apparent Kd, inactive:
B6 no binding seen
B7 no binding seen
